According to paper PMC8184511:
Results are given in words; binding and its absence hold for the method and conditions named. In cells and extracts the contact can be indirect. Some results given as binding are weak or reduced against the parent protein; the word gives no strength.

Amino acid sequences for entries named in this document (tags omitted).
UniProt O95714: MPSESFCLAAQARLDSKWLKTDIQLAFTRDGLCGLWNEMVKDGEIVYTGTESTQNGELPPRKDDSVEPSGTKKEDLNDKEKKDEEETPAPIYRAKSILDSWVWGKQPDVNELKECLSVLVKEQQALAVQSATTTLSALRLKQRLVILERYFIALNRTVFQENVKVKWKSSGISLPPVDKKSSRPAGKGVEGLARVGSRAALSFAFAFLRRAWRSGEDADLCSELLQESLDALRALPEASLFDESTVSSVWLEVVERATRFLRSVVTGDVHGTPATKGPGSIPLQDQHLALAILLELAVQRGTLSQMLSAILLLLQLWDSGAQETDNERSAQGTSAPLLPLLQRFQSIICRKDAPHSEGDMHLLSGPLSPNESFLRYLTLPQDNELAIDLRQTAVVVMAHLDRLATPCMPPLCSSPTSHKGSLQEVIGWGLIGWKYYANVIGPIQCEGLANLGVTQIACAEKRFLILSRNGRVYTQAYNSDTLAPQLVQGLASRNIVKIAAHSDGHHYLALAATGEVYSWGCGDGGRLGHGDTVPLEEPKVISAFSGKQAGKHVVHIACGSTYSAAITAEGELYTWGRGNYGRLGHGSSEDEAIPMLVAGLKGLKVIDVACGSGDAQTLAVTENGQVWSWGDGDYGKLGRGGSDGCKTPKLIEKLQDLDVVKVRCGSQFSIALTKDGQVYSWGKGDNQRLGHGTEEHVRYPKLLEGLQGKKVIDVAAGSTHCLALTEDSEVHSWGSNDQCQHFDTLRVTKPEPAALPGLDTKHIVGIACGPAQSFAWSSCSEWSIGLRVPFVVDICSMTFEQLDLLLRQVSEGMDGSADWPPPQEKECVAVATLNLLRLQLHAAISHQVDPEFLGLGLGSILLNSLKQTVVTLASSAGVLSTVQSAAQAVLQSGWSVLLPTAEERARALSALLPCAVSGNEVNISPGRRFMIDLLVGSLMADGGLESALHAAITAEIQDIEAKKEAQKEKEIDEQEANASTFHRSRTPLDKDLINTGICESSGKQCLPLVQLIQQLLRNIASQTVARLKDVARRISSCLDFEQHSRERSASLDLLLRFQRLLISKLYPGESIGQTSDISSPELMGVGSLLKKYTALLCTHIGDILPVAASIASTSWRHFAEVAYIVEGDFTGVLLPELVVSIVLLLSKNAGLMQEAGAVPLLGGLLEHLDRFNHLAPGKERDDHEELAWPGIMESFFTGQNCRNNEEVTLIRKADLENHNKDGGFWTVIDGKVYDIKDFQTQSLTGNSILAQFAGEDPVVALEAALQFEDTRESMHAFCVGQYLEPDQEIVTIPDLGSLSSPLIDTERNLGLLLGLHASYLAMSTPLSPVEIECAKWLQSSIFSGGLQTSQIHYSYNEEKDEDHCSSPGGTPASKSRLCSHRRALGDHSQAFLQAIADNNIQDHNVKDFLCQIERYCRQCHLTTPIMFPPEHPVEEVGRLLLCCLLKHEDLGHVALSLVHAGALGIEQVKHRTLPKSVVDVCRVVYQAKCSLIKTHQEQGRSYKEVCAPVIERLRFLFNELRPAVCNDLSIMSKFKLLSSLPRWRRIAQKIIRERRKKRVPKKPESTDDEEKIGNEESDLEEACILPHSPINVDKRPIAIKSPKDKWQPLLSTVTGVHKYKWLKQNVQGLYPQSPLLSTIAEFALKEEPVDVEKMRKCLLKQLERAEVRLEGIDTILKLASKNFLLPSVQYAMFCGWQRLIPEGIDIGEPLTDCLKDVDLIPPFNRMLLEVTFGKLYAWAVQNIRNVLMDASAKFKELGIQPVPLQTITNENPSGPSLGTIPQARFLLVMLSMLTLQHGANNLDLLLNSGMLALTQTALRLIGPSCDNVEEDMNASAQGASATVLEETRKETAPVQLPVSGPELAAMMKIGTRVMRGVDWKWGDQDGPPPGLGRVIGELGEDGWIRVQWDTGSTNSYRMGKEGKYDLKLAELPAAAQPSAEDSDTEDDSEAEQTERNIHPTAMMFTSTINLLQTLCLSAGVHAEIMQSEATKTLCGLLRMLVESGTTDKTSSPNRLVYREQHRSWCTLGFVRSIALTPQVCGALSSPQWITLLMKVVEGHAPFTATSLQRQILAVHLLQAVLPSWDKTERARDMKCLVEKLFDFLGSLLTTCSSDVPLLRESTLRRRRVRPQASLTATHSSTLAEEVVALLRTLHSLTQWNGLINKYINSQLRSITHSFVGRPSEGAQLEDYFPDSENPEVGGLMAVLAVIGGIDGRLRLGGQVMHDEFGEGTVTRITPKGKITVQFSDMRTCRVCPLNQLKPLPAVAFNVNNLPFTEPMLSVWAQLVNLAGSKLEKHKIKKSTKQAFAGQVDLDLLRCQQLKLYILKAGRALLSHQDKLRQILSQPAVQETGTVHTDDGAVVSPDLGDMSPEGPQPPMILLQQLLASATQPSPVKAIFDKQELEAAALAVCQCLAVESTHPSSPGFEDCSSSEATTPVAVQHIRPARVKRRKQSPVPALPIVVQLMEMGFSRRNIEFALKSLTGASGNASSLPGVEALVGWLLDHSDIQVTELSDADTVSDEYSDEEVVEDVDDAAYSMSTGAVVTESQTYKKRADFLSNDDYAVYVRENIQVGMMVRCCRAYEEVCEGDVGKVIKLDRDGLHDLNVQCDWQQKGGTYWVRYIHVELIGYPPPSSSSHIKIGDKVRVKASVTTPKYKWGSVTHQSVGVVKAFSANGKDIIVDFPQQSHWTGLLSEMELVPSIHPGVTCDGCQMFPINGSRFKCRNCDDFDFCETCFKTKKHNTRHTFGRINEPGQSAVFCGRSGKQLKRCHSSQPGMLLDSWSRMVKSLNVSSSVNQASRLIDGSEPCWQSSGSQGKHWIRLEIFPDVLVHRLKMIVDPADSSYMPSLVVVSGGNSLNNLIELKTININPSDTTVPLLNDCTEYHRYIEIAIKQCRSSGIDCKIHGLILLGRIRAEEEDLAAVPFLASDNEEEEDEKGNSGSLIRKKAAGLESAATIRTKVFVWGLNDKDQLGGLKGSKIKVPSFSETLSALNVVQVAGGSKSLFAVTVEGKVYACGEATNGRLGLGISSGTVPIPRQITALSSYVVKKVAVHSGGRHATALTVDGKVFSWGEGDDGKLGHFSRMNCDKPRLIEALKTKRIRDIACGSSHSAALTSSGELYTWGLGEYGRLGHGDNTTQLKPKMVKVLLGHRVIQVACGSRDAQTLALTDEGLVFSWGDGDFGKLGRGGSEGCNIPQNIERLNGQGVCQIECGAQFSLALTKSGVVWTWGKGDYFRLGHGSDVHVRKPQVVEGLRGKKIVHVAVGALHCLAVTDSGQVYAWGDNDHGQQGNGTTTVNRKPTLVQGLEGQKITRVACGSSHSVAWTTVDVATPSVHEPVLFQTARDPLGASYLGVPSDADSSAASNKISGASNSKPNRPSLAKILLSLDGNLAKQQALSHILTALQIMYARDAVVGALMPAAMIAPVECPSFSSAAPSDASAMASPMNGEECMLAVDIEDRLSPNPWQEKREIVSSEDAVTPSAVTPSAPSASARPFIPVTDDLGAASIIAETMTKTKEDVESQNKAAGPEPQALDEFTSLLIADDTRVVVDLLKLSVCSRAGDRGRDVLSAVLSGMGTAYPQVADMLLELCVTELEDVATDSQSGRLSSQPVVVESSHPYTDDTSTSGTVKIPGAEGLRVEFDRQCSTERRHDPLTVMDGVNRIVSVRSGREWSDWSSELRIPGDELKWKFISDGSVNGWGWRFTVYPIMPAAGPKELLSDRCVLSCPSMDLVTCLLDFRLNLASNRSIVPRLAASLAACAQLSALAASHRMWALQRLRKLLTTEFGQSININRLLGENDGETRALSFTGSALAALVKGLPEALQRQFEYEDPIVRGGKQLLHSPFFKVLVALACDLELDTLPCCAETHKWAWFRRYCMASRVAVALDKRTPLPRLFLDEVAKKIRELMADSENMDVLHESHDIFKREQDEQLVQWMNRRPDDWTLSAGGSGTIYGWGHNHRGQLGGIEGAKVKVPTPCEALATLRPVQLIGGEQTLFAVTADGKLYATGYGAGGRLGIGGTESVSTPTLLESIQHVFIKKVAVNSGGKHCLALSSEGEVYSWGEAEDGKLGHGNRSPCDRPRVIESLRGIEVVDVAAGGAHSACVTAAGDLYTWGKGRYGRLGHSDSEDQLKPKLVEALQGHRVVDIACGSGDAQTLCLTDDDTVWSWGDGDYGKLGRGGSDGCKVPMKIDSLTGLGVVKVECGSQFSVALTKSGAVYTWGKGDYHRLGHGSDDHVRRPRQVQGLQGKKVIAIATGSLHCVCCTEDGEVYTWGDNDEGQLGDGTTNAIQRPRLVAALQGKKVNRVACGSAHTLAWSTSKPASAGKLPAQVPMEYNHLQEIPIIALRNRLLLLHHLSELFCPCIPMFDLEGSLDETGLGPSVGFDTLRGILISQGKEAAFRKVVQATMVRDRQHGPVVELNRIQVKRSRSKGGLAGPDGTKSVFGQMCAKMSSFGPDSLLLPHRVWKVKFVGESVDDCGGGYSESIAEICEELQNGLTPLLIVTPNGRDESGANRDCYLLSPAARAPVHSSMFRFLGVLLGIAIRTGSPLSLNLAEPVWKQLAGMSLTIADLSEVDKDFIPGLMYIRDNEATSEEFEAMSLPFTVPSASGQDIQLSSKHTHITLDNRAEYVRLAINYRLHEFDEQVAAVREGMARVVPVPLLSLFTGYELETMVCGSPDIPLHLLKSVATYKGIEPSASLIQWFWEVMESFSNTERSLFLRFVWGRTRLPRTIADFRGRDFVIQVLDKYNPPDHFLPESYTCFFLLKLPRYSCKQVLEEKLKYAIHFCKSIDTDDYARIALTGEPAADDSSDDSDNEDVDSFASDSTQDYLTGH

What was measured:
[1] = molecular target: ASPM (abnormal spindle-like microcephaly-associated protein), endogenous (human (endogenous in 293T and HeLa)) (UniProt Q8IZT6); test: co-IP; total cell lysates of 293T cells transfected with siHERC2 or siBRCA1 for 48 hr, immunoprecipitation with anti-ASPM, immunoblotting
[2] = molecular target: FLAG-GFP-ASPM (abnormal spindle-like microcephaly-associated protein, tagged at the endogenous locus) (human (endogenous in HeLa)) (UniProt Q8IZT6); test: co-IP; total cell lysates of FLAG-GFP-ASPM KI HeLa cells or CTR HeLa cells, immunoprecipitation with anti-FLAG, immunoblotting
[3] = molecular target: breast cancer type 1 susceptibility protein BRCA1, endogenous (human (endogenous in HeLa and 293T)) (UniProt P38398); test: co-IP; total cell lysates of siCTR and siASPM 293T cells, and of ASPM KO and CTR HeLa cells, immunoprecipitation with anti-BRCA1, immunoblotting

Measured: binding

E3 ligase HERC2, endogenous (from UniProt O95714 1-4834) (enzyme)
binds: all assays above
